Data as given in PubChem BioAssay AID686943 (Drosophila RNAi Screening Center, 2013).
The screen tested about 23,000 reagents; shown is a random part of those that have a named target and a result. 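Extra replicates exist only for a retested subset of genes; insulin dose and duration not given; both raised and lowered dpERK matter.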 Not all columns of the deposit are shown. Reagent sequences are not shown. Not given: the amount of reagent, the time to read-out.

Aim: 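Knockdowns that increase or decrease active ERK after insulin receptor stimulation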 (primary screen)
Cells: Drosophila S2R+ haemocyte-like cells expressing YFP-tagged ERK (Rolled)
Reagents: long dsRNA against Drosophila genes
Challenge: insulin stimulation versus unstimulated cells; dose and duration not given
Measurement: 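Per-plate z-scores of phospho-ERK immunostaining normalised to YFP-tagged ERK, measured with and without insulin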
Reading the numbers: replicate 1, z-score of dpERK with insulin: higher = more active ERK per ERK-YFP after insulin

ItgaPS5 [DRSC04501] gave replicate 1, z-score of dpERK with insulin 0.01.
Mad [DRSC00759] scored replicate 1, z-score of dpERK with insulin 0.91.
CG3337 [DRSC15478] showed replicate 1, z-score of dpERK with insulin 0.19.
With knock-down of CG3663 [DRSC04402] the results were replicate 1, z-score of dpERK with insulin 0.16.
Depletion of CG12539 [DRSC19470] gave: replicate 1, z-score of dpERK with insulin 0.22.
With knock-down of Sf3a2 [DRSC09801], the screen gave replicate 1, z-score of dpERK with insulin 1.33.
Ip259 [DRSC03352] scored replicate 1, z-score of dpERK with insulin -1.12.
After knock-down of CG16786 [DRSC04281], the record shows replicate 1, z-score of dpERK with insulin -0.17.
Knock-down of egl [DRSC04682] resulted in: replicate 1, z-score of dpERK with insulin 0.93.
Ptth [DRSC00356] scored replicate 1, z-score of dpERK with insulin 0.5.
With knock-down of Cyp40 [DRSC10980], the screen gave replicate 1, z-score of dpERK with insulin 0.13.
After knock-down of CG8060 [DRSC07064], the record shows replicate 1, z-score of dpERK with insulin -0.64.
